Measured values taken from PubChem BioAssay AID248 (DTP/NCI, 2004).
The list shows only some results of the screen, not a fair sample: it is rich in T/C values a quarter to a half above the control, in often repeated tests (any T/C) and in doses without a T/C. Other doses and runs of a compound stand elsewhere. T/C gives the treated animals as a percentage of the vehicle group. Some doses have a count of surviving animals in place of a T/C: the source files T/C as zero there, which appears to mark a toxic dose or a test without result, not a measured value. Some survivor counts are full or nearly so, which does not show that the dose was tolerated: the source hardly ever lists a survival T/C far under the control, and the zero likely stands for such cases as well. Survivors were counted at the toxicity check, usually on the fifth day, unless a day is given; later deaths do not show. Schedules are NCI's codes, read here as Q, the interval in days (D) or hours (H), X, the number of doses. Some schedules carry Z or #; the key to these is not given. Counts like (3×) stand for listed records that agree. Some entries were tested several times; the values are given in rising order. For survival time, the PubChem record calls one and a half times the control and up active, and a quarter to a half above the control has no call in these data; cut-offs in other NCI protocols can differ. Some T/C values carry the count of animals alive at the toxicity check (mostly the fifth day); where none is given, no animal had died by that day.

System: L1210 leukemia ip in BDF1 mice, survival T/C
Assay: NCI In Vivo Anticancer Drug Screen. Data for tumor model L1210 Leukemia (intraperitoneal) in B6D2F1 (BDF1) mice
Conditions: T/C endpoint: mean survival time, higher T/C = longer survival
[1] = dose: 50.0 mg/kg/injection, schedule: Q01DX001 (ip), vehicle: carboxymethylcellulose (CMC)
[2] = dose: 100.0 mg/kg/injection, schedule: Q01DX001 (ip), vehicle: carboxymethylcellulose (CMC)
[3] = dose: 200.0 mg/kg/injection, schedule: Q01DX001 (ip), vehicle: carboxymethylcellulose (CMC)
[4] = dose: 400.0 mg/kg/injection, schedule: Q01DX001 (ip), vehicle: carboxymethylcellulose (CMC)
[5] = dose: 400.0 mg/kg/injection, schedule: Q04DX003 (ip), vehicle: Klucel (hydroxypropylcellulose) (HPC)
[6] = dose: 400.0 mg/kg/injection, schedule: Q01DX009 (ip), vehicle: Klucel (hydroxypropylcellulose) (HPC)
[7] = dose: 200.0 mg/kg/injection, schedule: Q04DX003 (ip), vehicle: saline
[8] = dose: 400.0 mg/kg/injection, schedule: Q04DX003 (ip), vehicle: saline

Cc1cc[n+]2cc3c(ccc4ccccc43)c(C)c2c1
survivor count (dose: 32.0 mg/kg/injection, schedule: Q01DX015 (ip), vehicle: carboxymethylcellulose (CMC)): 4 of 6
survivor count [1]: 2 of 4
survivor count (dose: 64.0 mg/kg/injection, schedule: Q01DX015 (ip), vehicle: carboxymethylcellulose (CMC)): 0 of 6
survivor count [2]: 0 of 4
survivor count [3]: 0 of 4

CC(=O)[O][Hg][c]1cc2c(cc1N)C(=O)c1ccccc1-2
survivor count (dose: 25.0 mg/kg/injection, schedule: Q01DX001 (ip), vehicle: carboxymethylcellulose (CMC)): 0 of 6
survivor count [1]: 0 of 6
survivor count [2]: 0 of 4
survivor count [3]: 0 of 4
survivor count [4]: 0 of 4

c1cc[c]([Sn]([c]2ccccc2)([c]2ccccc2)[n]2cncn2)cc1
survivor count (dose: 100.0 mg/kg/injection, schedule: Q04DX002 (ip), vehicle: saline with Tween-80): 0 of 3
survivor count (dose: 200.0 mg/kg/injection, schedule: Q04DX002 (ip), vehicle: saline with Tween-80): 0 of 3
survivor count (dose: 400.0 mg/kg/injection, schedule: Q04DX002 (ip), vehicle: saline with Tween-80): 0 of 3

CC(C)(C)C(=O)CC(O)(C(F)(F)Cl)C(F)(F)Cl
survivor count (dose: 400.0 mg/kg/injection, schedule: Q04DX003 (ip), vehicle: saline with Tween-80): 3 of 6

Nc1nc(N)c(N)c(N=O)n1
survivor count (dose: 200.0 mg/kg/injection, schedule: Q01DX Z (ip), vehicle: methylcellulose (MC)): 6 of 6

CC1(C)C2CCC([CH2][Hg][Cl])C1C2 (configuration not stated)
survivor count (dose: 40.0 mg/kg/injection, schedule: Q01DX001 (ip), vehicle: Klucel (hydroxypropylcellulose) (HPC)): 0 of 6
survivor count (dose: 80.0 mg/kg/injection, schedule: Q01DX001 (ip), vehicle: Klucel (hydroxypropylcellulose) (HPC)): 0 of 6
survivor count (dose: 100.0 mg/kg/injection, schedule: Q01DX001 (ip), vehicle: Klucel (hydroxypropylcellulose) (HPC)): 0 of 6
survivor count (dose: 100.0 mg/kg/injection, schedule: Q04DX003 (ip), vehicle: other): 0 of 6
survivor count (dose: 200.0 mg/kg/injection, schedule: Q01DX001 (ip), vehicle: Klucel (hydroxypropylcellulose) (HPC)): 0 of 6
survivor count (dose: 200.0 mg/kg/injection, schedule: Q04DX003 (ip), vehicle: other): 1 of 6
survivor count (dose: 400.0 mg/kg/injection, schedule: Q01DX001 (ip), vehicle: Klucel (hydroxypropylcellulose) (HPC)): 0 of 6
survivor count (dose: 400.0 mg/kg/injection, schedule: Q04DX003 (ip), vehicle: other): 0 of 6

Cc1cc(=O)[nH]c(N/N=C2/CCCCC2C)n1 (configuration not stated)
survivor count [5]: 2 of 6

O=NN(CCF)C(=O)NC1CCC(C(=O)O)CC1 (configuration not stated)
T/C (dose: 6.0 mg/kg/injection, schedule: Q01DX001 (ip), vehicle: saline with Tween-80): 125 % of control
T/C (dose: 13.0 mg/kg/injection, schedule: Q01DX001 (ip), vehicle: saline with Tween-80): 133 % of control
T/C (dose: 20.0 mg/kg/injection, schedule: Q01DX001 (ip), vehicle: saline with Tween-80): 148 % of control
survivor count (dose: 66.0 mg/kg/injection, schedule: Q01DX001 (ip), vehicle: saline with Tween-80): 1 of 6
survivor count (dose: 100.0 mg/kg/injection, schedule: Q01DX001 (ip), vehicle: saline with Tween-80): 0 of 6 (2×)

NC(=S)N/N=C(\c1ccc(Br)cc1)C1CC1
survivor count (dose: 15.0 mg/kg/injection, schedule: Q01DX Z (ip), vehicle: carboxymethylcellulose (CMC)): 0 of 6 and 2 of 6
survivor count (dose: 30.0 mg/kg/injection, schedule: Q01DX Z (ip), vehicle: carboxymethylcellulose (CMC)): 0 of 6
survivor count (dose: 32.0 mg/kg/injection, schedule: Q01DX Z (oral), vehicle: carboxymethylcellulose (CMC)): 0 of 6
survivor count (dose: 60.0 mg/kg/injection, schedule: Q01DX Z (ip), vehicle: carboxymethylcellulose (CMC)): 0 of 6
survivor count (dose: 120.0 mg/kg/injection, schedule: Q01DX Z (ip), vehicle: carboxymethylcellulose (CMC)): 0 of 6

CC(=O)Nc1ccc(S(=O)(=O)F)cc1C
survivor count [6]: 1 of 6

Cc1n(C(C)C)c2c([n+]1C)C(=O)c1ccccc1C2=O
survivor count (dose: 3.12 mg/kg/injection, schedule: Q04DX003 (ip), vehicle: acetone): 2 of 6
survivor count (dose: 5.31 mg/kg/injection, schedule: Q01DX009 (ip), vehicle: acetone): 2 of 6
survivor count (dose: 6.25 mg/kg/injection, schedule: Q04DX003 (ip), vehicle: acetone): 0 of 6
survivor count (dose: 12.5 mg/kg/injection, schedule: Q04DX003 (ip), vehicle: saline): 0 of 6
survivor count (dose: 25.0 mg/kg/injection, schedule: Q04DX003 (ip), vehicle: saline): 0 of 6
survivor count (dose: 50.0 mg/kg/injection, schedule: Q04DX003 (ip), vehicle: saline): 0 of 6
survivor count (dose: 100.0 mg/kg/injection, schedule: Q04DX003 (ip), vehicle: saline): 0 of 6
survivor count [7]: 0 of 6
survivor count [8]: 0 of 6

CN(C)c1ccc2c(c1)C(Br)c1ccccc1-2 (configuration not stated)
survivor count [6]: 0 of 6

CN(CCC(C#N)(CCC#N)c1ccccc1)Cc1ccccc1 (configuration not stated)
survivor count (dose: 300.0 mg/kg/injection, schedule: Q01DX001 (ip), vehicle: saline): 3 of 6

CN(C)CCC=C1c2ccccc2-c2ccccc21
survivor count [7]: 3 of 6
survivor count [8]: 1 of 6

CNC(=N)c1ccc(NC(=N)c2ccc(NC(=O)Nc3ccc(NC(=O)Nc4ccc(C(=N)Nc5ccc(C(=N)NC)cc5)cc4)cc3)cc2)cc1
T/C (dose: 3.0 mg/kg/injection, schedule: Q01DX015 (ip), vehicle: water): 131 % of control
T/C (dose: 3.75 mg/kg/injection, schedule: Q01DX Z (ip), vehicle: water): 146 % of control [5 of 6 alive]
survivor count (dose: 61.5 mg/kg/injection, schedule: Q01DX Z (ip), vehicle: water): 3 of 6
survivor count (dose: 123.0 mg/kg/injection, schedule: Q01DX Z (ip), vehicle: water): 0 of 6
survivor count (dose: 246.0 mg/kg/injection, schedule: Q01DX Z (ip), vehicle: water): 0 of 6

COc1ccc(OC)c(NC(=O)Oc2ccccc2C(N)=O)c1
survivor count (dose: 200.0 mg/kg/injection, schedule: Q04DX003 (ip), vehicle: Klucel (hydroxypropylcellulose) (HPC)): 5 of 6
survivor count [5]: 4 of 6

Cc1ccc(S(=O)(=O)OCCN(CCOS(=O)(=O)c2ccc(C)cc2)c2ccc(C=O)cc2)cc1
T/C (dose: 175.0 mg/kg/injection, schedule: Q01DX001 (ip), vehicle: carboxymethylcellulose (CMC)): 132 % of control
T/C (dose: 265.0 mg/kg/injection, schedule: Q01DX001 (ip), vehicle: carboxymethylcellulose (CMC)): 140 % of control
T/C [4]: 118, 120, 124, 133 % of control
T/C (dose: 600.0 mg/kg/injection, schedule: Q01DX001 (ip), vehicle: carboxymethylcellulose (CMC)): 139 % of control [5 of 6 alive]

O=P(c1c(F)c(F)c(F)c(F)c1F)(c1c(F)c(F)c(F)c(F)c1F)c1c(F)c(F)c(F)c(F)c1F
survivor count (dose: 400.0 mg/kg/injection, schedule: Q01DX001 (ip), vehicle: saline with Tween-80): 6 of 6

Cc1c(C(=O)O)cc2n(c1=O)Cc1cc3ccccc3nc1-2
survivor count (dose: 400.0 mg/kg/injection, schedule: Q01DX009 (ip), vehicle: saline): 1 of 6

CCN=C(c1ccc(NC(=O)c2ccc(C(=O)Nc3ccc(C(=NCC)N(CC)C(C)=O)cc3)cc2)cc1)N(CC)C(C)=O
survivor count (dose: 250.0 mg/kg/injection, schedule: Q01DX015 (ip), vehicle: methylcellulose (MC)): 3 of 6
